According to PubChem BioAssay AID493014 (National Center for Advancing Translational Sciences (NCATS), 2011):
Screen size: about 340,000 compounds; about 170 (0.05%) were called active. This list was built around the results that the source calls inconclusive (neither active nor inactive); the mix of calls is not that of the screen. The call rests on the fitted dose curve; in most records, active means well fitted inhibition curve with a large enough effect in the signal ratio, with a control signal flat (not every such curve was filed as active); inconclusive means small, poorly fitted or top-dose-only effect, or effect the other way, or a change in a side signal; inactive means flat fitted curve, though single readings scatter; the % refers to the signal ratio. Potencies of inconclusive entries are doubtful fits and often do not repeat.
Potency means the concentration at half of the fitted maximal effect.

Test: qHTS Assay to Find Inhibitors of Chronic Active B-Cell Receptor Signaling;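 on activity change, negative = inhibition: plate controls were basal doxycycline-induced cells for no effect and cells given 10 µM MG132 for full effect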
Settings: ABC-DLBCL IkBa-CBG/CBR reporter, luminescence ratio (green luciferase fused to IkBa over red control in TMD8 lymphoma cells), 4 h; activity change, negative = inhibition: at 46.1 µM (top of the series)
How it was run: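 Doxycycline induced both beetle luciferases in TMD8 lymphoma cells; IKK-driven degradation limits the IkappaBalpha-fused green signal, while red luminescence normalises for cell number and nonspecific effects. Compounds tested up to 46 uM, 4 hrs.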
With `Cc1ccccc1CNC(=O)C(=O)NCCC1CCCCN1S(=O)(=O)c1cccs1` (stereo not given) the activity change, negative = inhibition was inconclusive: -24.1%. In the case of `COCCCNC(=S)NNC(=O)c1ccccn1`, the activity change, negative = inhibition is reported as “inactive”. With `COc1cc(CNC(C)(C)CO)cc(Br)c1OCc1ccc(Cl)cc1Cl` the activity change, negative = inhibition was “inactive”. In the case of `O=C(CCS(=O)(=O)c1ccccc1F)Nc1ccc(N2CCN(Cc3ccccc3)CC2)cc1`, the activity change, negative = inhibition is reported as “inactive”. In the case of `Cc1cc(/C=C(\C#N)C(=O)NCC2CCCO2)c(C)n1-c1ccc(Cl)cc1` (stereo not given), the activity change, negative = inhibition is reported as “inactive”. With `O=C(N/N=C\c1ccc(Cl)s1)C1COc2ccccc2O1` (stereo not given) the activity change, negative = inhibition was “inactive”. With `CCN(CC)Cc1cc(CCNC(=O)c2ccc(Cl)cc2)ccc1O` the activity change, negative = inhibition was inconclusive: 3.83%. For `CCOc1ncccc1C(=O)NNC(=O)c1csc(N2CCOCC2)n1`, the activity change, negative = inhibition was inconclusive: 1.31%. For `CCOC(=O)c1c(C)[nH]c(C)c1S(=O)(=O)N1CCC(C(=O)N2CCN(c3cccc(C)c3)C(C)C2)CC1` (stereo not given), the activity change, negative = inhibition was inconclusive: 2.35%. With `COc1ccc(Nc2ncccc2C(=O)Nc2ccccc2)cc1` the activity change, negative = inhibition was inconclusive: -10.2%. For `CCOC(=O)c1ccc(CN(Cc2ccc(F)cc2)S(=O)(=O)c2ccc(F)cc2)cc1`, the activity change, negative = inhibition was “inactive”. In the case of `CCCCCC(=O)Nc1ccc2ccccc2c1`, the activity change, negative = inhibition is reported as inconclusive: 1.76%. For `O=C(Nc1ccc(-c2nc3cccnc3s2)cc1)c1ccc(Cl)nc1`, the activity change, negative = inhibition was inconclusive: 11%. For `Cc1ccc(NC(=O)CSc2ncnc3ccccc23)cc1S(=O)(=O)N1CCCCC1`, the Potency was inconclusive: 32.6 µM [falling, partial curve, poor fit]. With `COc1ccc(C(=O)Nc2sc(C)c(-c3ccccc3)c2C#N)cc1OC` the Potency was inconclusive: 18.4 µM [falling, partial curve]. For `COc1ccc(C(=O)Cn2nc(CNc3ccc(Br)cc3)[n+]3c2CCCCC3)cc1`, the activity change, negative = inhibition was inconclusive: 0.976%. In the case of `CNC(=S)N/N=C/c1cccc(OCc2ccccc2F)c1`, the activity change, negative = inhibition is reported as “inactive”. With `O=C1CC(N(Cc2ccc3c(c2)OCO3)C(=O)Nc2ccc(F)cc2)C(=O)N1c1ccccc1` (stereo not given) the activity change, negative = inhibition was inconclusive: -5.86%. With `C=CCn1c(CCC(O)COCCC)n[nH]c1=S` (stereo not given) the activity change, negative = inhibition was “inactive”. For `CC(c1ccco1)N(C(=O)c1cccc(S(=O)(=O)N(C)C)c1)c1ccccn1` (stereo not given), the activity change, negative = inhibition was inconclusive: 9.42%. For `COc1ccc(C(=O)c2coc3ccc(O)cc23)cc1`, the activity change, negative = inhibition was inconclusive: 2.06%. For `Cc1ccc(-n2c3nc(=O)[nH]c(=O)c-3cc3cc([N+](=O)[O-])ccc32)cc1`, the Potency was inconclusive: 9.2 µM [cytotoxic, partial curve, poor fit]. For `COc1ccc(CNC(=O)NC(C)(C)c2cccc(C(C)(C)NC(=O)NCc3ccc(OC)cc3)c2)cc1`, the activity change, negative = inhibition was inconclusive: -1.8%. For `CCOC(=O)c1ccccc1NS(=O)(=O)c1ccc(OC)cc1`, the Potency was inconclusive: 32.6 µM [falling, partial curve, poor fit]. With `Cc1ccc(C(=O)Nc2ccc3c(c2)OCO3)cc1Cl` the Potency was inconclusive: 7.08 µM [falling, partial curve, poor fit]. For `CC(C)C(=O)Nc1ccc(C(=O)Nc2ccc(S(=O)(=O)N3CCOCC3)cc2)cc1`, the activity change, negative = inhibition was “inactive”. In the case of `COc1ccccc1C/C(N)=N/OC(=O)c1cccs1`, the activity change, negative = inhibition is reported as inconclusive: 0.341%. With `O=C(Nc1cccc(Cl)c1Cl)c1cc(S(=O)(=O)N2CCCCC2)ccc1F` the activity change, negative = inhibition was inconclusive: -1.82%. In the case of `COc1cc2cc(C(=O)N3CCN(c4ccccc4OC)CC3)[nH]c2cc1OC`, the activity change, negative = inhibition is reported as inconclusive: 2.69%. In the case of `C/C=C\C=C\C(=O)Nc1cccc(C2=NOC3(C2)C[C@H](C(N)=O)N(C(=O)c2ccccc2C(=O)c2ccccc2)C3)c1` (stereo not given in full), the activity change, negative = inhibition is reported as inconclusive: -17.1%. With `CC(=O)c1cccc(S(=O)(=O)Nc2c(C)nn(C)c2C)c1` the activity change, negative = inhibition was “inactive”. With `O=C(CCNC(=O)c1ccc(Br)cc1)NNC(=O)c1ccccc1O` the Potency was inconclusive: 29.1 µM [falling, single point]. In the case of `COc1ccc(C(=O)c2ccc(N(C)C)cc2)c(OC)c1`, the activity change, negative = inhibition is reported as inconclusive: -13.1%. In the case of `CN(C)CCN(C(=O)c1ccccc1Cl)c1nc2c(Cl)cccc2s1`, the activity change, negative = inhibition is reported as inconclusive: -4.17%. In the case of `COc1ccc(N(CC(=O)Nc2cc(C)ccc2C)S(=O)(=O)c2ccccc2[N+](=O)[O-])c(OC)c1`, the activity change, negative = inhibition is reported as “inactive”. For `COc1ccc(OC)c(S(=O)(=O)N2CCNCC2)c1`, the activity change, negative = inhibition was inconclusive: 0.231%. For `CCOc1ccc(NC(=O)CCC(=O)n2nc(C)cc2C)cc1`, the Potency was inconclusive: 14.6 µM [falling, single point]. In the case of `COc1ccc2nc(NC(=O)C3CCN(S(=O)(=O)c4cccnc4)CC3)sc2c1`, the activity change, negative = inhibition is reported as “inactive”. With `COc1ccc(C(=O)/C(C#N)=N/Nc2cccc([N+](=O)[O-])c2)cc1` the activity change, negative = inhibition was inconclusive: -6.21%. In the case of `COc1cc(/C=N/NC2=NC(C)(C)Cc3ccccc32)cc(OC)c1OC`, the activity change, negative = inhibition is reported as inconclusive: -3.66%. For `COc1ccc(NC(=O)CN(C)C(=O)c2cc3c(s2)CCC3)cc1`, the activity change, negative = inhibition was inconclusive: 13.2%. With `N#C/C(=C\c1ccccc1OCc1ccc(C(=O)O)cc1)C(=O)Nc1ccc(O)cc1` the Potency was inconclusive: 22.4 µM [falling, partial curve]. In the case of `CCCNC(=O)c1ccc2c(c1)ncn2-c1ccccc1OC`, the Potency is reported as inconclusive: 20.6 µM [falling, partial curve]. In the case of `COC(=O)c1sc(N)c(C(=O)OC)c1COC(=O)CNS(=O)(=O)c1ccc(C)c(C)c1`, the activity change, negative = inhibition is reported as inconclusive: 2.45%. With `C=CCn1c(SCC(=O)Nc2nncs2)nnc1-c1ccco1` the activity change, negative = inhibition was inconclusive: -15.4%. For `CCOC(=O)n1c(=O)oc2ccccc21`, the Potency was inconclusive: 10 µM [falling, partial curve]. With `CCc1nc2ccccc2c(C(=O)OCC(=O)Nc2ccc(S(=O)(=O)N3CCOCC3)cc2)c1C` the Potency was inconclusive: 35.5 µM [falling, partial curve, poor fit]. With `Cc1cc(=O)oc2c(C)c(OCC(=O)NC3CC(C)(C)NC(C)(C)C3)ccc12` the activity change, negative = inhibition was “inactive”. In the case of `O=C(Nc1ccccc1)c1ccc2nsnc2c1`, the Potency is reported as inconclusive: 22.4 µM [falling, single point]. With `CCCn1c(=O)c2[nH]c(C3CCCC3)nc2n(CCC)c1=O` the activity change, negative = inhibition was inconclusive: 4.62%. With `Cn1cnc2cc(NCc3ccccc3Cl)ccc21` the Potency was inconclusive: 25.1 µM [falling, partial curve, poor fit]. With `Oc1ccc2ccccc2c1CN1CCN(c2ccccc2)CC1` the activity change, negative = inhibition was “inactive”. In the case of `CCOC(=O)N1CCC(NC(=O)c2cccc3c2C(=O)N(CCOC)C3)CC1`, the activity change, negative = inhibition is reported as inconclusive: 7.42%. For `O=C1C=C(NCc2ccc(Cl)cc2Cl)C2(CCCCC2)O1`, the activity change, negative = inhibition was “inactive”. For `C/C(CC(=O)NC1CCCCC1)=N\NC(=O)Cc1ccc(-c2ccccc2)cc1`, the Potency was inconclusive: 35.5 µM [falling, single point]. In the case of `COc1cccc(N2C(=O)C(Cc3c[nH]c4ccccc34)NC2=S)c1` (stereo not given), the activity change, negative = inhibition is reported as inconclusive: -10.4%. With `COc1ccc(C(=O)COC(=O)CCn2nnc(-c3cccs3)n2)cc1` the activity change, negative = inhibition was inconclusive: 23.9%. For `C/C(=N\NS(=O)(=O)c1cccc([N+](=O)[O-])c1)c1cc2ccccc2o1`, the Potency was inconclusive: 18.4 µM [falling, single point]. With `Fc1ccc(/C=N/NC(=S)Nc2cccnc2)cc1F` the Potency was inconclusive: 2.24 µM [falling, partial curve, poor fit]. In the case of `CCC(C(=O)N1CCCC1)n1nc(C)c2c(C)n(-c3ccccc3)nc2c1=O` (stereo not given), the activity change, negative = inhibition is reported as “inactive”. In the case of `COc1ccc(CCC(C)NCCc2ccc(Cl)cc2Cl)cc1` (stereo not given), the activity change, negative = inhibition is reported as inconclusive: 8.87%. For `Cc1cc(C)n2nc(SCc3nc4ccccc4[nH]3)nc2n1`, the Potency was inconclusive: 14.6 µM [falling, partial curve, poor fit]. With `Brc1ccc(Cn2c(-c3ccc(Br)o3)nc3ccccc32)o1` the activity change, negative = inhibition was inconclusive: -14.8%. With `Cc1ccc(C(=O)CN2C(=O)NC3(CCCCCC3)C2=O)c(C)c1` the Potency was inconclusive: 18.4 µM [rising, single point]. With `CCNC(=S)Nc1ccc(Cl)cc1` the activity change, negative = inhibition was inconclusive: -0.753%. With `Cc1c(NC(=O)CSCc2ccc(Br)cc2)c(=O)n(-c2ccccc2)n1C` the activity change, negative = inhibition was “inactive”. With `CC(C)(C)c1ccc(C(=O)NCC(=O)OCC(=O)Nc2ccc3c(c2)OCCO3)cc1` the activity change, negative = inhibition was “inactive”. For `O=C(CNC(=O)c1n[nH]c2ccccc12)Nc1cc(Cl)ccc1Cl`, the activity change, negative = inhibition was inconclusive: -1.13%. In the case of `O=C(COc1ccc(Cl)cc1Cl)N/N=C/C1CC=CCC1` (stereo not given), the activity change, negative = inhibition is reported as inconclusive: 0.848%. For `CCc1cc(=O)oc2c(C)c(OCC(=O)N3CCC(C(=O)O)CC3)ccc12`, the Potency was inconclusive: 20 µM [falling, partial curve]. With `CC1CCN(S(=O)(=O)c2ccc(NC(=O)CNC3CCCCC3)cc2)CC1` the activity change, negative = inhibition was “inactive”. With `Cc1ccc(/C=C2\SC(=S)N(CCC(=O)NNC(=O)c3cccnc3)C2=O)cc1` the Potency was inconclusive: 3.66 µM [falling, partial curve]. With `O=C(NCCc1csc(-c2cccnc2)n1)c1ccco1` the activity change, negative = inhibition was “inactive”. With `CCCn1c(N)c(N(CCOC)C(=O)CSCC(=O)Nc2ccc(C)cc2)c(=O)[nH]c1=O` the activity change, negative = inhibition was inconclusive: 0.0103%. In the case of `CCOC(=O)[C@H]1[C@H]2COc3ccccc3[C@@H]2N2C(=O)c3ccc(C)cc3NC(=O)[C@@]12C`, the activity change, negative = inhibition is reported as inconclusive: -11.2%. With `Cc1ccc(NC2=C(Cl)C(=O)c3ccccc3C2=O)cc1` the activity change, negative = inhibition was “inactive”. For `COc1ccc(NC(=S)N(Cc2cccnc2)Cc2cc3cc(OC)c(OC)cc3[nH]c2=O)cc1`, the activity change, negative = inhibition was inconclusive: 14%. With `CN(C(=O)c1cccnc1)c1nnc(-c2ccccn2)s1` the activity change, negative = inhibition was inconclusive: -14%. In the case of `CCNCC(=O)N1c2ccccc2CCc2ccc(NC(=O)OCC)cc21`, the activity change, negative = inhibition is reported as inconclusive: -0.193%. For `O=C(OCc1cc2ccccc2[nH]c1=O)c1ccncc1`, the Potency was inconclusive: 32.6 µM [falling, single point].
